Test results as given in BindingDB's records for doi:10.1038/305140a0 (College of France, 1983).
Several values for one entry are separate records, joined by “and”; a condition that tells them apart may be missing. Identical values can stand only once.

Target: T1, 5-hydroxytryptamine receptor 1A (Rattus norvegicus, UniProt P19327)
T1 sequence (P19327 whole entry): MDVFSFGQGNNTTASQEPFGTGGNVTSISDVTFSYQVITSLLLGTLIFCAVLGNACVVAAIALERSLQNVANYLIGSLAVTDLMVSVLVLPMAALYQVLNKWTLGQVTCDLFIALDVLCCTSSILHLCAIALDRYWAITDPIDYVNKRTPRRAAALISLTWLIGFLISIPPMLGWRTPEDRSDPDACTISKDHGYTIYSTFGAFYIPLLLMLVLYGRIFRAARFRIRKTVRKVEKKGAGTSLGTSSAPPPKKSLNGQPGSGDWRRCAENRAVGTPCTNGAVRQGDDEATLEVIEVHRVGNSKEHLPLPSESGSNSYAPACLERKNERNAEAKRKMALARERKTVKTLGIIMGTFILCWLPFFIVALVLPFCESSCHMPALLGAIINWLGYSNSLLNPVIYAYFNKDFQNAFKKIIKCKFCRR

Ki: 0.977 µM and 5.25 µM
SMILES: CN1CCC(=C2c3ccccc3C=Cc3ccccc32)CC1 [5-(1-methylpiperidylidene-4)-5H-dibenzo(a,d)cyclopheptene]
